Data taken from article doi:10.1101/2024.10.10.617637.
Results are given in words; binding and its absence hold for the method and conditions named. In cells and extracts the contact can be indirect. Here binding means that the protein was enriched with, or labelled near, the bait; the list need not be complete.

By UniProt entry, the sequences of proteins in these tests, tags left out.
UniProt P05198: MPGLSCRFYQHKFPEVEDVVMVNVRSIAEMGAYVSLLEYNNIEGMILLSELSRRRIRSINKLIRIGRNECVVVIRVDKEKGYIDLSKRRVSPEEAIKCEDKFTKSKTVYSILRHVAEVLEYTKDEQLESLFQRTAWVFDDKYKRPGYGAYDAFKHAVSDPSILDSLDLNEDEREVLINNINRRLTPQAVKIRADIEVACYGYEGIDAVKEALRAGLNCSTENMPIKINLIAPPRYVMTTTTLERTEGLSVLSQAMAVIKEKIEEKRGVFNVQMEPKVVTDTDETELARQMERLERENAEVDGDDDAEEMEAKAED
UniProt P41091: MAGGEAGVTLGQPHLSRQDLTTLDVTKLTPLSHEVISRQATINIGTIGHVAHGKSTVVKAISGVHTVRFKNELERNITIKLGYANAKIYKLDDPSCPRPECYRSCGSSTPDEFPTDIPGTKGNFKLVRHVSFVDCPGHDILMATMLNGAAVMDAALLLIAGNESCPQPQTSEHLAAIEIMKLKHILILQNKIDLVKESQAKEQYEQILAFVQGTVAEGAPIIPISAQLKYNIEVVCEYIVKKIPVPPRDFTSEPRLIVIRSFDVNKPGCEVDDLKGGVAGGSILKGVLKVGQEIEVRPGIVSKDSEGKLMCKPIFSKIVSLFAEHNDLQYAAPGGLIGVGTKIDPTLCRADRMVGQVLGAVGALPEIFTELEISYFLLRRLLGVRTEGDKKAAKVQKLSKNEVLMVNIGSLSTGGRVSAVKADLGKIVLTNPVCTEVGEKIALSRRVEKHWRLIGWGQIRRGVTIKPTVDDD
UniProt P20042: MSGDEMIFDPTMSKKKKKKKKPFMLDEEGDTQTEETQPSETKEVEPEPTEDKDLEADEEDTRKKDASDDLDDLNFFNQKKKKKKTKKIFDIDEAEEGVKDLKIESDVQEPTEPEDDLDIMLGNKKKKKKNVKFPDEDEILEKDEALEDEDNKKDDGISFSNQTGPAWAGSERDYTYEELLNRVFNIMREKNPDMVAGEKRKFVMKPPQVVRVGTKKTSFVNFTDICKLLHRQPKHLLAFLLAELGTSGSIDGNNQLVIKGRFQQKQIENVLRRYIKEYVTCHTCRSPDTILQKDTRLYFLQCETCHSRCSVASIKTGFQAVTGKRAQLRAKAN

Target: T1, RBM42 (RNA binding motif protein 42), endogenous (human (endogenous in Panc-1)) (UniProt Q9BTD8)
T1 sequence: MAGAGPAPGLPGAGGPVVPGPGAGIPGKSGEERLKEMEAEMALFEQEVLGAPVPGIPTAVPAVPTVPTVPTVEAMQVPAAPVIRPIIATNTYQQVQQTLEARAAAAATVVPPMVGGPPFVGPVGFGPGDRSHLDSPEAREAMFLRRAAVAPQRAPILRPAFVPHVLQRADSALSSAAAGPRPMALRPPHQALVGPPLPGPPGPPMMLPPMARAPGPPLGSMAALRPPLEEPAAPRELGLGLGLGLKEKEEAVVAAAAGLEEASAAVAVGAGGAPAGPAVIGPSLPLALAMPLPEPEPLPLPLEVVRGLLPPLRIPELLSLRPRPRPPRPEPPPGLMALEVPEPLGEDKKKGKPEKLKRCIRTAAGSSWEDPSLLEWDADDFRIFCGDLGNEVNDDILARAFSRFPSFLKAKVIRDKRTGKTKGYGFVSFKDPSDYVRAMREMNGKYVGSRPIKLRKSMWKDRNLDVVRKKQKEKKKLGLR
Experiment: affinity purification with mass spectrometry

| binding | Substance |
| --- | --- |
| binds | eIF2α (from UniProt P05198 1-315) |
| binds | eIF2γ (from UniProt P41091 1-472) |
| binds | eIF2β (from UniProt P20042 1-333) |
